Source: PubChem BioAssay AID504764 (Drosophila RNAi Screening Center, 2011)
Test: 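Knock-downs that raise or lower a Notch target reporter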 (primary screen). System: Drosophila Kc167 cells. Knock-down reagent: long dsRNA against Drosophila genes. Duration: about 5 days (4 days dsRNA, then 24 h after transfection). Treatment: transfection of constitutively active membrane-tethered Notch lacking the extracellular domain, read 24 h later. Detection: 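Light from a Notch-responsive E(spl)m3 luciferase reporter under active Notch, with control-promoter and no-Notch reporter wells to normalise; raw counts from paired wells a and b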. Scale: induced reporter light, run 1, well a and induced reporter light, run 1, well b: higher = more light from the Notch target reporter with active Notch; control promoter light, run 1, well a and control promoter light, run 1, well b: higher = more light from the viral control promoter (cell number, transfection, viability); uninduced reporter light, run 1, well a: higher = more light from the Notch target reporter without active Notch. Active means: 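Hit if the duplicate-averaged log2 ratio of induced to control-promoter light gives a plate-wise z beyond ±2, or induced to uninduced beyond ±1.8; weak-control or discordant-duplicate wells dropped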. Calls: active = modifier hit (raised or lowered Notch signal); inactive = not a hit.
The deposit covers about 22,000 reagents; below is an unselected part of those that have a named target and a result. Over the whole deposit, 403 (1.9%) were called active. 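Unnormalised raw counts per well; ratio z-scores behind the hit calls and whether each hit raises or lowers signal are not deposited.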 Unmarked entries are inactive. The record does not give: the amount of reagent.

| target gene | dsRNA | induced reporter light, run 1, well a | induced reporter light, run 1, well b | control promoter light, run 1, well a | control promoter light, run 1, well b | uninduced reporter light, run 1, well a |
| --- | --- | --- | --- | --- | --- | --- |
| Epac | DRSC04969 | 1.57e5 | 1.73e5 | 2.58e5 | 2.76e5 | 14310 |
| Epac | DRSC04996 | 72860 | 81215 | 49975 | 54110 | 4415 |
| Epac | DRSC04997 | 1.92e5 | 1.99e5 | 1.74e5 | 1.79e5 | 12295 |
| Reph | DRSC00634 | 84570 (active) | 79590 | 67525 | 63680 | 4990 |
| BBS4 | DRSC06352 | 2.41e5 | 1.75e5 | 3.43e5 | 3.32e5 | 15505 |
| CG15408 | DRSC00423 | 1.47e5 | 1.43e5 | 1.66e5 | 1.68e5 | 11000 |
| CG13041 | DRSC09922 | 2.62e5 | 1.72e5 | 1.84e5 | 1.95e5 | 8160 |
| Idh3a | DRSC19446 | 76930 | 80780 | 1.03e5 | 1.13e5 | 10055 |
| Odj | DRSC16234 | 1.66e5 | 1.73e5 | 2.09e5 | 2.08e5 | 15485 |
| CG13297 | DRSC09971 | 1.46e5 | 1.66e5 | 1.58e5 | 1.39e5 | 5465 |
| P32 | DRSC06988 | 91055 | 74505 | 1.62e5 | 2.05e5 | 7350 |

Individual results from above.
Result of CG13041 [DRSC09922] in “induced reporter light, run 1, well a”: 2.62e5
Under “uninduced reporter light, run 1, well a”, BBS4 [DRSC06352] has 15505

The list goes on.
| target gene | dsRNA | induced reporter light, run 1, well a | induced reporter light, run 1, well b | control promoter light, run 1, well a | control promoter light, run 1, well b | uninduced reporter light, run 1, well a |
| --- | --- | --- | --- | --- | --- | --- |
| CG7430 | DRSC10845 | 90050 | 55120 | 48915 | 50270 | 5240 |
| CG9577 | DRSC20693 | 1.05e5 | 1.18e5 | 1.29e5 | 1.22e5 | 11900 |
| CG42490 (retired record) | DRSC01649 | 64615 | 72510 | 76010 | 67425 | 7065 |
| Gos28 | DRSC16292 | 1.97e5 | 1.80e5 | 1.61e5 | 1.74e5 | 13315 |
| CG13631 | DRSC14632 | 1.75e5 | 1.86e5 | 1.82e5 | 2.16e5 | 13335 |
| CG34267 | DRSC07881 | 2.11e5 | 1.90e5 | 2.02e5 | 1.90e5 | 15565 |
| CG5693 | DRSC02878 | 1.13e5 | 1.24e5 | 1.23e5 | 1.39e5 | 9905 |
| ckn | DRSC06149 | 1.11e5 | 1.02e5 | 1.14e5 | 1.23e5 | 7392 |
| CG3483 | DRSC04371 | 1.54e5 | 1.58e5 | 1.24e5 | 1.45e5 | 12420 |
| CG10184 | DRSC14204 | 1.88e5 | 1.83e5 | 2.49e5 | 2.49e5 | 16692 |
| prom | DRSC04684 | 1.42e5 | 1.45e5 | 1.59e5 | 1.59e5 | 8755 |
| CG31522 | DRSC12005 | 1.52e5 | 2.02e5 | 2.29e5 | 2.38e5 | 16092 |
| CG5357 (retired record) | DRSC04497 | 1.45e5 | 1.44e5 | 1.22e5 | 1.19e5 | 11010 |
| Sf3a1 | DRSC15166 | 57545 (active) | 67875 | 68775 | 77530 | 4245 |
| PolQ | DRSC17006 | 71720 | 67870 | 45995 | 48875 | 5630 |
| CG15022 | DRSC08476 | 2.57e5 | 2.75e5 | 2.84e5 | 2.21e5 | 14042 |
| CG42366 | DRSC02760 | 70795 | 83800 | 46320 | 55155 | 14160 |
| Mpcp1 | DRSC07337 | 1.09e5 | 83935 | 95105 | 1.22e5 | 7955 |
| Ccp84Ag | DRSC12592 | 1.07e5 | 97315 | 91815 | 82305 | 6460 |
| Gat | DRSC17144 | 1.16e5 | 1.23e5 | 2.10e5 | 1.94e5 | 8860 |
| P5cr-2 | DRSC15889 | 2.42e5 | 2.04e5 | 2.16e5 | 1.95e5 | 17005 |
| CG8993 | DRSC08616 | 84815 | 1.23e5 | 1.34e5 | 1.25e5 | 8610 |
| DCTN6-p27 | DRSC02609 | 43915 | 36205 | 47370 | 38150 | 2245 |
